Results from patent US20230117606A1, “COMPOSITIONS AND METHODS FOR THE TREATMENT OF INTRACELLULAR BACTERIAL INFECTIONS” (Endolytix Technology, Inc., priority 2020, published 2023).
At least one compound was matched to its structure with a doubt left.

Test system: M. abscessus
Assay: Cell growth assay of M. abscessus with ABIα and antibiotic, Fractional Inhibitory Concentration (FIC) index
Type: cell-based, Mycobacterium abscessus
Conditions: antibiotic in combination with ABIα; FIG. 5

Compound: COc1c(N2C[C@@H]3CCCN[C@@H]3C2)c(F)cc2c(=O)c(C(=O)O)cn(C3CC3)c12 [moxifloxacin]
- effect by FIC index on attenuation of M. abscessus growth: synergistic effects
